Some of the results follow.
Tests used:
Test in all cases: log2 fold change, soluble protein after heating vs DMSO (PISA); higher = thermal stabilisation; K562 lysate, 10 uM; active = over 0.2 and 3.5 SD of the protein, either way, in both replicates (recomputed)
alvocidib = compound: CN1CC[C@H](c2c(O)cc(O)c3c(=O)cc(-c4ccccc4Cl)oc23)[C@H](O)C1 [alvocidib]
How it was run: (§1)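 Soluble protein was defined as the supernatant remaining after 21,000xg for 90 min, following pooling of heated aliquots and adjustment to 0.5% NP-40 at 4°C. Before that, crude K562 extract at 1 mg/mL protein in PBS pH 7.4 with 1 mM MgCl2 was treated with 10 μM compound for 30 min and heated for 3 min across 48°C-58°C. Quantification used TMTpro 16plex LC-MS/MS with channel sums equalised, and values are log-two fold changes in thermal stability relative to solvent controls from duplicates.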

Amino acid sequences for entries named in this document (tags omitted). A change or cut given only in a name is not applied to a line headed by its entry.
UniProt P41240: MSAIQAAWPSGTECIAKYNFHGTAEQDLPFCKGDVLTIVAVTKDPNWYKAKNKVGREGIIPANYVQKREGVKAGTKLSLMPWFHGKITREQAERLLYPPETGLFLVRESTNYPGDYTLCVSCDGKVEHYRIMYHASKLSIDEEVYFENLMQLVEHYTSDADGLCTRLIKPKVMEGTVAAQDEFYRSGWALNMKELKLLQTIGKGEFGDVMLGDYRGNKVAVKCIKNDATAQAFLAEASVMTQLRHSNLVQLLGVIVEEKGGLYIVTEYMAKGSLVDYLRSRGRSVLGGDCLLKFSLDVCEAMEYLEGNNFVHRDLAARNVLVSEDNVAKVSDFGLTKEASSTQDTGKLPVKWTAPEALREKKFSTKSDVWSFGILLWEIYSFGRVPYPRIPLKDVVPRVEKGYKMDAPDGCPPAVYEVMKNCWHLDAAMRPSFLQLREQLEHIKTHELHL
UniProt Q9P013: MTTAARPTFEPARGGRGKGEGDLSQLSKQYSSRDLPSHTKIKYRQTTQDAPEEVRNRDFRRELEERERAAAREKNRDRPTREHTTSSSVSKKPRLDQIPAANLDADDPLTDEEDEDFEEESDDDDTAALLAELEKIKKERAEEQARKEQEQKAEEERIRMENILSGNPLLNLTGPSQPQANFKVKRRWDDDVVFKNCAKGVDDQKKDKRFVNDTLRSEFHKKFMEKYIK
UniProt P04080: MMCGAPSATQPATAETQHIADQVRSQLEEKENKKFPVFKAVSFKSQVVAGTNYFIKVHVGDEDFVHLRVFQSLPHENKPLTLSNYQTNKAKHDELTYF
UniProt P07711: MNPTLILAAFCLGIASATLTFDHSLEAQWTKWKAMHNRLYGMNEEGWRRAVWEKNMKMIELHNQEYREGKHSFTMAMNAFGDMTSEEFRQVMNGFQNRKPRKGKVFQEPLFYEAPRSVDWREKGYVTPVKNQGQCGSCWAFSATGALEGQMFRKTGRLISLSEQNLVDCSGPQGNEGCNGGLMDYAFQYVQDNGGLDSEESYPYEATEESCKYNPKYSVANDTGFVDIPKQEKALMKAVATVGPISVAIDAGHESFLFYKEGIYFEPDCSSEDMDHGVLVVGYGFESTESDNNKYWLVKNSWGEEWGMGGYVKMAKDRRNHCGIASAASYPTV
UniProt Q13620, whole entry, looked up: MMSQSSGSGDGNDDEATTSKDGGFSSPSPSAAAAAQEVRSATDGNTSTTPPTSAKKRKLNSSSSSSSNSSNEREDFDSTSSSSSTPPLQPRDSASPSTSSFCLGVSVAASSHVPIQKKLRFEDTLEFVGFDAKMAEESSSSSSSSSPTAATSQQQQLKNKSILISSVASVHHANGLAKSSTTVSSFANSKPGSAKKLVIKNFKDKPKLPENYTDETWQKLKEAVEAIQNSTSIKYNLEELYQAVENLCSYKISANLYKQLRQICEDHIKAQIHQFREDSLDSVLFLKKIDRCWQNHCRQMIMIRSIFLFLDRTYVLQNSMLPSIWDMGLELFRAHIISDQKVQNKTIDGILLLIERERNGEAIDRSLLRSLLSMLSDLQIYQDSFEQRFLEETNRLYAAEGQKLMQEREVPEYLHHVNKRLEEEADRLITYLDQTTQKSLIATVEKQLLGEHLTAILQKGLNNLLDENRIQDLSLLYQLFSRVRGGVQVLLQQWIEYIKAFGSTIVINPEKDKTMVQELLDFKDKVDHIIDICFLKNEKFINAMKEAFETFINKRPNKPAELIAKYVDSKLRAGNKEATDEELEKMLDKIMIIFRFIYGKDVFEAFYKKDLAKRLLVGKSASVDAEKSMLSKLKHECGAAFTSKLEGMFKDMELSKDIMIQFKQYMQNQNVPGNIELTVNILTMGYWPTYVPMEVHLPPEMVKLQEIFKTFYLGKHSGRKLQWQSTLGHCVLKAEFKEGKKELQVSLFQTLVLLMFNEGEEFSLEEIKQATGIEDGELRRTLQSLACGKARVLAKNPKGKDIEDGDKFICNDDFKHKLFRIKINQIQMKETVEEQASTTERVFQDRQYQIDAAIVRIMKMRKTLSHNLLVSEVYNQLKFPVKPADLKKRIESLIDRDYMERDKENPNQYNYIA
UniProt P53634: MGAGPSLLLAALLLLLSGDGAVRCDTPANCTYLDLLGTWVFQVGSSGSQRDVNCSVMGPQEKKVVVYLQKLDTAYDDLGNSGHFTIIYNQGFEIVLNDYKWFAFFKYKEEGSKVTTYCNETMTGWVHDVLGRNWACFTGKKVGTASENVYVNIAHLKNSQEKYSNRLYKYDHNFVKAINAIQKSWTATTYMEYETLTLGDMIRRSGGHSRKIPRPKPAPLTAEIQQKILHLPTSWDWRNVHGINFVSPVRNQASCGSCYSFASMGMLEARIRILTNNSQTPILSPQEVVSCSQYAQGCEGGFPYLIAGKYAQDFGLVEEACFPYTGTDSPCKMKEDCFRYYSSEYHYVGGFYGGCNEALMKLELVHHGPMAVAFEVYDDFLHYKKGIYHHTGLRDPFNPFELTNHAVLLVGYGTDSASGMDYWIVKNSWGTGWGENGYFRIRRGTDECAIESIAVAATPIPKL
UniProt Q5TZA2: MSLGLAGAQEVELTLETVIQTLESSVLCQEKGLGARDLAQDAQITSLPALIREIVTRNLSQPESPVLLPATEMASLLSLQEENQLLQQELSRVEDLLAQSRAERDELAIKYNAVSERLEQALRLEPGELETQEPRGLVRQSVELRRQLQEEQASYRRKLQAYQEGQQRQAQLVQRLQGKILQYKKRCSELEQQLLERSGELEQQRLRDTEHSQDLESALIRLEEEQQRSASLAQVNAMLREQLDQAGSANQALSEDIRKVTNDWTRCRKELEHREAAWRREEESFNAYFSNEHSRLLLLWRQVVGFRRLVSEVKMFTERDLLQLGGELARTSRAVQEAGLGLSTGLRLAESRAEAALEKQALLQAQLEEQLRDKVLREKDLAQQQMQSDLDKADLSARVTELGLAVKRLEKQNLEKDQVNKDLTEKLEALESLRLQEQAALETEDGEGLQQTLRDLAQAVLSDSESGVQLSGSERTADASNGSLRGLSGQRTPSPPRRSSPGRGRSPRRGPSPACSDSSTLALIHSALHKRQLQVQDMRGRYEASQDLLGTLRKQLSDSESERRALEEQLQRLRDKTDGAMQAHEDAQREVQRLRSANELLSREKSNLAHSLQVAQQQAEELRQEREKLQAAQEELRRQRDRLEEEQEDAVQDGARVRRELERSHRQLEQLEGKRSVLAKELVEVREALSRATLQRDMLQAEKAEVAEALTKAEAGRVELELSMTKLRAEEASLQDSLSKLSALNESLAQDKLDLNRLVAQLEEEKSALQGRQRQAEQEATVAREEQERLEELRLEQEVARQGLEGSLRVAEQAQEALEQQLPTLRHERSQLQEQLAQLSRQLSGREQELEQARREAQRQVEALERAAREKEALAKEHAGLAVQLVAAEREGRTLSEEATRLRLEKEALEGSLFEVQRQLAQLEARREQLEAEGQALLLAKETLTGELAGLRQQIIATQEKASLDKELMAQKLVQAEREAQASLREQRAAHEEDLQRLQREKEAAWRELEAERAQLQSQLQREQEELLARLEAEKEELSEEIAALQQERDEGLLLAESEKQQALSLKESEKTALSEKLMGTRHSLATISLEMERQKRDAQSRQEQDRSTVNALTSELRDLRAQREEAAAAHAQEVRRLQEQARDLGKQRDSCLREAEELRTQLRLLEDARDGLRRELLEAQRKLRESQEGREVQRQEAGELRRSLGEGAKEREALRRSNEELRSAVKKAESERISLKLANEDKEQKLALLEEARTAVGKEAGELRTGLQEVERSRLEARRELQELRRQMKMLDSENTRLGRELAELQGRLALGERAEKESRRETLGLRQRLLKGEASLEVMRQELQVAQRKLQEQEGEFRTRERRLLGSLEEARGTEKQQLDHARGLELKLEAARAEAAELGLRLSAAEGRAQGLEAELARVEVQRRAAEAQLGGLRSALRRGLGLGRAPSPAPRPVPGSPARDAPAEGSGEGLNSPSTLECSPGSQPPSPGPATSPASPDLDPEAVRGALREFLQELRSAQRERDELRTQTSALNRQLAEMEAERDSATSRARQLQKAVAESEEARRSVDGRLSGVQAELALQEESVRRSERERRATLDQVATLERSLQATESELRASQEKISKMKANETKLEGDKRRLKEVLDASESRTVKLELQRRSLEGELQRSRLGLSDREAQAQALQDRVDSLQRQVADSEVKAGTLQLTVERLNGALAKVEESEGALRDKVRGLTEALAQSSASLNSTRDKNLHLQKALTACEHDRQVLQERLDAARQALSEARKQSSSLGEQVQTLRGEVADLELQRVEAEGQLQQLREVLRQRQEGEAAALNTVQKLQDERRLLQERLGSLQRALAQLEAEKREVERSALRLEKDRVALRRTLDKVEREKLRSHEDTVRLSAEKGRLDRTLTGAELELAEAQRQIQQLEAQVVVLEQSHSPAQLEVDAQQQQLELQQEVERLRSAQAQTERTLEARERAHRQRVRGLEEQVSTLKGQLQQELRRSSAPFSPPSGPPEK
UniProt P68400, whole entry, looked up: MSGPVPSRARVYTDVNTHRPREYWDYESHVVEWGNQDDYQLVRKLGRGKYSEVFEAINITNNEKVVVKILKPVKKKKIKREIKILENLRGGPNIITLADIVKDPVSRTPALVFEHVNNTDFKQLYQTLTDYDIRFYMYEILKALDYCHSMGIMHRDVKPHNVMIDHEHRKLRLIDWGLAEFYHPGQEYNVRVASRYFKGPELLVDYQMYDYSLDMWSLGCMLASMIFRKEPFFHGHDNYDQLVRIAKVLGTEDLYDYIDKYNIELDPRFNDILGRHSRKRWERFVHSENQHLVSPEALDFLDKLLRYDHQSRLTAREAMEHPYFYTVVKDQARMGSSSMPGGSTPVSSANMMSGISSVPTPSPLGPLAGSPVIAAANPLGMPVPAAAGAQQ
UniProt Q8TB03: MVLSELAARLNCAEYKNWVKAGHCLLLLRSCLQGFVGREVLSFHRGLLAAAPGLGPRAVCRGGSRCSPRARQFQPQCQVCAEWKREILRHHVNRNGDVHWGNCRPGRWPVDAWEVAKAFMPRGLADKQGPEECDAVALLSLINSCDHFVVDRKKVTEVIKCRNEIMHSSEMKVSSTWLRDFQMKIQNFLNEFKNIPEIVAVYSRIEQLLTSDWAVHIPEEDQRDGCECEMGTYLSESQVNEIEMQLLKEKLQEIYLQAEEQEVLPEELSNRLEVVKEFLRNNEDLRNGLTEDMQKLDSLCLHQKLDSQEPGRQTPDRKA
UniProt P17812: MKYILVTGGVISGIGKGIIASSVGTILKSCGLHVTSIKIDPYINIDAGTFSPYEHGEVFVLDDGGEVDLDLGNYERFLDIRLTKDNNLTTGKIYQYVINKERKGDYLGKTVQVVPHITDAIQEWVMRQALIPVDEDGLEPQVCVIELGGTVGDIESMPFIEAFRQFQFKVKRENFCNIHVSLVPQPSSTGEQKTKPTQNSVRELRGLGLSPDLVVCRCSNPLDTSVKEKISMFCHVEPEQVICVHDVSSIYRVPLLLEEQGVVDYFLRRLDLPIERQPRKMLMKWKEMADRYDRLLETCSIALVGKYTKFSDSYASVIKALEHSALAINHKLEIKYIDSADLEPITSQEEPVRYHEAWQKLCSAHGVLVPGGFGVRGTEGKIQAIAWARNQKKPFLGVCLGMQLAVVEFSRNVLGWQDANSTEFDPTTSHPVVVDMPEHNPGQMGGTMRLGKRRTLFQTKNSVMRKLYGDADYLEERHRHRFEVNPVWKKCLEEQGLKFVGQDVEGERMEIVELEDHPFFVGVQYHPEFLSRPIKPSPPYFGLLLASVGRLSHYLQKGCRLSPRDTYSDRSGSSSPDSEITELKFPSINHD
UniProt O60888: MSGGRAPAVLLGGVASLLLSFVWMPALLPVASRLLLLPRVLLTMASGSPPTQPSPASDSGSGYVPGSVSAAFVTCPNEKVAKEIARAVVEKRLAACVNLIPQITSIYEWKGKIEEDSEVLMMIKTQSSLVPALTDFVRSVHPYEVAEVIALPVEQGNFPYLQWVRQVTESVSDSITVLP
UniProt Q69YN2: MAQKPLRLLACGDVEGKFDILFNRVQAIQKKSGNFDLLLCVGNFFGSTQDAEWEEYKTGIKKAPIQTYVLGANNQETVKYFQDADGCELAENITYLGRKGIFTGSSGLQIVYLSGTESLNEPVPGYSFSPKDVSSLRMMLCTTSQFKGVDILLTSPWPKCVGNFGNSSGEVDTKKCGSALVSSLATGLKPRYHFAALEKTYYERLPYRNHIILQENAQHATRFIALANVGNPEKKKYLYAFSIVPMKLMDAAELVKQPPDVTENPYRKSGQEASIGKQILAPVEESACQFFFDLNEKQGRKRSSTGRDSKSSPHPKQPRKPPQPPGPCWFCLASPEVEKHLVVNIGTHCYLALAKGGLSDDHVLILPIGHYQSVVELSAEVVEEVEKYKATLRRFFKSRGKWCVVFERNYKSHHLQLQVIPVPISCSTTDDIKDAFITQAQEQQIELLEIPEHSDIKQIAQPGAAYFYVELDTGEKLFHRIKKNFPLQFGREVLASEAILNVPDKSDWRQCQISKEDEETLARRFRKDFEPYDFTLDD

Tubastatin A = compound: CN1CCc2c(c3ccccc3n2Cc2ccc(C(=O)NO)cc2)C1 [Tubastatin A]
How it was run: as §1

[1] = compound: CNC(=O)C1=CC=CC=C1NC2=NC(=NC=C2Cl)NC3=C(C=C(C=C3)N4CCOCC4)OC
How it was run: as §1

defactinib = compound: CNC(=O)c1ccc(Nc2ncc(C(F)(F)F)c(NCc3nccnc3N(C)S(C)(=O)=O)n2)cc1 [defactinib]
How it was run: as §1

[2] = compound: CNc1nc(-c2ccc3c(N)n[nH]c3c2)cc(N2C[C@@H](C(=O)NC3CCCCC3)CC[C@H]2C)n1
How it was run: as §1

encorafenib = compound: COC(=O)N[C@@H](C)CNc1nccc(-c2cn(C(C)C)nc2-c2cc(Cl)cc(NS(C)(=O)=O)c2F)n1 [encorafenib]
How it was run: as §1

[3] = compound: COC(=O)[C@H](CCSC)NC(=O)C1=C(C=C(C=C1)NC[C@H](CS)N)C2=CC=CC=C2
How it was run: as §1

alisertib = compound: COc1cc(Nc2ncc3c(n2)-c2ccc(Cl)cc2C(c2c(F)cccc2OC)=NC3)ccc1C(=O)O [alisertib]
How it was run: as §1

[4] = compound: COc1cc2nc(-c3cc(F)ccc3O)nc(N[C@@H]3CNC[C@H]3C(C)(C)O)c2cc1OC
How it was run: as §1

gefitinib = compound: COc1cc2ncnc(Nc3ccc(F)c(Cl)c3)c2cc1OCCCN1CCOCC1 [gefitinib]
How it was run: as §1

lapatinib = compound: CS(=O)(=O)CCNCc1ccc(-c2ccc3ncnc(Nc4ccc(OCc5cccc(F)c5)c(Cl)c4)c3c2)o1 [lapatinib]
How it was run: as §1

pictilisib = compound: CS(=O)(=O)N1CCN(Cc2cc3nc(-c4cccc5[nH]ncc45)nc(N4CCOCC4)c3s2)CC1 [pictilisib]
How it was run: as §1

crizotinib = compound: C[C@@H](Oc1cc(-c2cnn(C3CCNCC3)c2)cnc1N)c1c(Cl)ccc(F)c1Cl [crizotinib]
How it was run: as §1

[5] = compound: C[C@H](C1=CC=C(C=C1)C(=O)NC2=C3C=CNC3=NC=C2)N
How it was run: as §1

duvelisib = compound: C[C@H](Nc1ncnc2nc[nH]c12)c1cc2cccc(Cl)c2c(=O)n1-c1ccccc1 [duvelisib]
How it was run: as §1

gandotinib = compound: Cc1cc(Nc2cc(CN3CCOCC3)c3nc(C)c(Cc4ccc(Cl)cc4F)n3n2)n[nH]1 [gandotinib]
How it was run: as §1

tozasertib = compound: Cc1cc(Nc2cc(N3CCN(C)CC3)nc(Sc3ccc(NC(=O)C4CC4)cc3)n2)n[nH]1 [tozasertib]
How it was run: as §1

doramapimod = compound: Cc1ccc(-n2nc(C(C)(C)C)cc2NC(=O)Nc2ccc(OCCN3CCOCC3)c3ccccc23)cc1 [doramapimod]
How it was run: as §1

bafetinib = compound: Cc1ccc(NC(=O)c2ccc(CN3CC[C@H](N(C)C)C3)c(C(F)(F)F)c2)cc1Nc1nccc(-c2cncnc2)n1 [bafetinib]
How it was run: as §1

[6] = compound: Cc1cccc(CC(=O)N2CCc3c2ccc(-c2cn(C)c4ncnc(N)c24)c3F)n1
How it was run: as §1

Measured: log2 fold change

CSK (UniProt P41240)
inactive: alvocidib 0.076 | Tubastatin A -0.088 | [1] 0.262 | defactinib 0.068 | [2] -0.027 | encorafenib -0.026 | [3] -0.063 | alisertib 0.072 | [4] -0.008 | gefitinib -0.01 | lapatinib -0.022 | pictilisib -0.017 | crizotinib 0.259 | [5] -0.075 | duvelisib -0.026 | gandotinib 0.377 | tozasertib 0.098 | doramapimod -0.005 | bafetinib 0.41 | [6] 0

CWC15 (UniProt Q9P013)
inactive: alvocidib 0.03 | Tubastatin A 0.09 | [1] 0.016 | defactinib -0.001 | [2] 0.031 | encorafenib -0.028 | [3] -0.001 | alisertib -0.073 | [4] 0 | gefitinib 0.014 | lapatinib -0.023 | pictilisib 0.024 | crizotinib 0.046 | [5] -0.01 | duvelisib 0.031 | gandotinib 0.028 | tozasertib 0.002 | doramapimod -0.039 | bafetinib -0.043 | [6] -0.003

CSTB (UniProt P04080)
inactive: alvocidib -0.051 | Tubastatin A 0.089 | [1] -0.023 | defactinib 0.069 | [2] 0.011 | encorafenib 0.025 | [3] -0.011 | alisertib 0.023 | [4] -0.042 | gefitinib -0.143 | lapatinib 0.05 | pictilisib 0.003 | crizotinib -0.059 | [5] -0.235 | duvelisib 0.025 | gandotinib 0.147 | tozasertib -0.01 | doramapimod 0.107 | bafetinib 0.012 | [6] 0.104

CTBP1 (UniProt Q13363)
inactive: alvocidib -0.005 | Tubastatin A -0.031 | [1] -0.004 | defactinib -0.016 | [2] -0.002 | encorafenib 0.009 | [3] -0.007 | alisertib -0.006 | [4] 0.023 | gefitinib -0.159 | lapatinib -0.007 | pictilisib 0.004 | crizotinib -0.021 | [5] -0.012 | duvelisib 0.007 | gandotinib 0.025 | tozasertib -0.005 | doramapimod -0.015 | bafetinib 0.02 | [6] 0.008

CYFIP1 (UniProt Q7L576)
inactive: alvocidib -0.03 | Tubastatin A -0.049 | [1] 0.023 | defactinib -0.019 | [2] -0.039 | encorafenib -0.002 | [3] -0.02 | alisertib -0.018 | [4] -0.017 | gefitinib 0.024 | lapatinib 0.018 | pictilisib -0.015 | crizotinib -0.023 | [5] -0.057 | duvelisib 0.018 | gandotinib -0.015 | tozasertib 0.014 | doramapimod 0 | bafetinib -0.006 | [6] 0.028

CTSL (UniProt P07711)
inactive: alvocidib -0.028 | Tubastatin A 0.035 | [1] 0.001 | defactinib 0.039 | [2] 0.079 | encorafenib 0 | [3] -0.008 | alisertib 0.008 | [4] -0.004 | gefitinib -0.008 | lapatinib -0.023 | pictilisib -0.01 | crizotinib 0.005 | [5] -0.075 | duvelisib 0.003 | gandotinib 0.079 | tozasertib -0.054 | doramapimod 0.005 | bafetinib -0.005 | [6] 0.009

CUL4B (UniProt Q13620)
inactive: alvocidib -0.035 | Tubastatin A 0.005 | [1] -0.002 | defactinib -0.001 | [2] 0.019 | encorafenib 0.002 | [3] -0.003 | alisertib 0.003 | [4] 0.013 | gefitinib 0.024 | lapatinib -0.019 | pictilisib -0.019 | crizotinib -0.012 | [5] -0.125 | duvelisib 0.001 | gandotinib 0.032 | tozasertib -0.028 | doramapimod 0.022 | bafetinib -0.019 | [6] 0.074

CTSC (UniProt P53634)
inactive: alvocidib -0.108 | Tubastatin A 0.024 | [1] -0.009 | defactinib 0.019 | [2] 0.037 | encorafenib 0.019 | [3] -0.059 | alisertib -0.019 | [4] 0.004 | gefitinib 0.024 | lapatinib -0.023 | pictilisib -0.017 | crizotinib 0.018 | [5] -0.16 | duvelisib 0.037 | gandotinib 0.047 | tozasertib -0.021 | doramapimod 0.031 | bafetinib 0.004 | [6] 0.104

CROCC (UniProt Q5TZA2)
inactive: alvocidib -0.233 | Tubastatin A 0.021 | [1] -0.048 | defactinib -0.019 | [2] 0.142 | encorafenib -0.04 | [3] 0.035 | alisertib -0.074 | [4] 0.126 | gefitinib 0.076 | lapatinib -0.138 | pictilisib -0.051 | crizotinib 0.014 | [5] -0.23 | duvelisib 0.105 | gandotinib 0.19 | tozasertib 0.097 | doramapimod 0.135 | bafetinib -0.032 | [6] 0.151

CSNK2A1 (UniProt P68400)
active: [1] 0.337
inactive: alvocidib 0.077 | Tubastatin A 0.019 | defactinib 0.056 | [2] -0.002 | encorafenib -0.004 | [3] -0.005 | alisertib 0.012 | [4] 0.112 | gefitinib -0.024 | lapatinib -0.038 | pictilisib 0.016 | crizotinib 0.007 | [5] -0.021 | duvelisib -0.002 | gandotinib -0.007 | tozasertib -0.006 | doramapimod -0.003 | bafetinib 0.027 | [6] -0.018

CXorf38 (UniProt Q8TB03)
inactive: alvocidib 0 | Tubastatin A 0.039 | [1] 0.04 | defactinib -0.012 | [2] -0.016 | encorafenib 0.02 | [3] -0.012 | alisertib -0.021 | [4] -0.058 | gefitinib -0.056 | lapatinib -0.05 | pictilisib -0.017 | crizotinib -0.019 | [5] -0.039 | duvelisib 0.013 | gandotinib 0.037 | tozasertib 0.037 | doramapimod 0.013 | bafetinib -0.018 | [6] -0.033

CTPS1 (UniProt P17812)
inactive: alvocidib 0.006 | Tubastatin A -0.101 | [1] -0.021 | defactinib 0 | [2] -0.048 | encorafenib 0.016 | [3] 0.038 | alisertib -0.019 | [4] -0.001 | gefitinib -0.015 | lapatinib -0.007 | pictilisib -0.015 | crizotinib -0.044 | [5] 0.004 | duvelisib -0.003 | gandotinib -0.052 | tozasertib -0.004 | doramapimod 0.005 | bafetinib 0.078 | [6] 0.015

CUTA isoform 2 (UniProt O60888)
inactive: alvocidib 0.077 | Tubastatin A 0.007 | [1] 0.042 | defactinib -0.12 | [2] 0.076 | encorafenib -0.014 | [3] -0.051 | alisertib 0.054 | [4] -0.038 | gefitinib -0.118 | lapatinib 0.022 | pictilisib -0.033 | crizotinib 0.027 | [5] -0.129 | duvelisib -0.012 | gandotinib 0.154 | tozasertib -0.018 | doramapimod -0.036 | bafetinib -0.041 | [6] 0.045

Pulled one by one from the list above (2):
CTPS1 (UniProt P17812)
inactive: alvocidib 0.006 | Tubastatin A -0.101 | [1] -0.021 | defactinib 0 | [2] -0.048 | encorafenib 0.016 | [3] 0.038 | alisertib -0.019 | [4] -0.001 | gefitinib -0.015 | lapatinib -0.007 | pictilisib -0.015 | crizotinib -0.044 | [5] 0.004 | duvelisib -0.003 | gandotinib -0.052 | tozasertib -0.004 | doramapimod 0.005 | bafetinib 0.078 | [6] 0.015

CXorf38 (UniProt Q8TB03)
inactive: alvocidib 0 | Tubastatin A 0.039 | [1] 0.04 | defactinib -0.012 | [2] -0.016 | encorafenib 0.02 | [3] -0.012 | alisertib -0.021 | [4] -0.058 | gefitinib -0.056 | lapatinib -0.05 | pictilisib -0.017 | crizotinib -0.019 | [5] -0.039 | duvelisib 0.013 | gandotinib 0.037 | tozasertib 0.037 | doramapimod 0.013 | bafetinib -0.018 | [6] -0.033

(cont.)

CWF19L1 (UniProt Q69YN2)
inactive: alvocidib 0.021 | Tubastatin A -0.039 | [1] 0.013 | defactinib 0.01 | [2] 0 | encorafenib 0.014 | [3] 0.013 | alisertib 0.007 | [4] -0.017 | gefitinib -0.004 | lapatinib 0.004 | pictilisib -0.012 | crizotinib 0.026 | [5] 0.022 | duvelisib 0.045 | gandotinib -0.029 | tozasertib 0.042 | doramapimod 0.003 | bafetinib 0 | [6] -0.038

CTR9 (UniProt Q6PD62)
inactive: alvocidib -0.023 | Tubastatin A -0.008 | [1] 0.043 | defactinib 0.015 | [2] -0.039 | encorafenib 0.001 | [3] 0.099 | alisertib -0.001 | [4] 0.014 | gefitinib 0.012 | lapatinib -0.001 | pictilisib -0.02 | crizotinib -0.023 | [5] -0.048 | duvelisib 0.003 | gandotinib 0.008 | tozasertib 0.005 | doramapimod 0.008 | bafetinib -0.068 | [6] 0.04

CYB5R2 (UniProt Q6BCY4)
inactive: alvocidib -0.054 | Tubastatin A 0.024 | [1] -0.009 | defactinib 0 | [2] 0.023 | encorafenib -0.01 | [3] 0.02 | alisertib -0.048 | [4] -0.003 | gefitinib 0.028 | lapatinib -0.004 | pictilisib 0.006 | crizotinib -0.008 | [5] -0.07 | duvelisib 0.055 | gandotinib 0.072 | tozasertib 0 | doramapimod -0.012 | bafetinib -0.012 | [6] 0.052

— the supplement of paper PMC10849652
